{"source": "PubChem BioAssay AID624297", "about": "(National Center for Advancing Translational Sciences (NCATS), 2012)", "note": "The whole screen tested about 340,000 compounds, of which about 6,200 (1.8%) were called active. The shares of active, inactive and inconclusive entries below differ from those in the screen. Calls follow the shape of the dose curve; as a rule, active = well fitted activation curve with a large enough effect; inconclusive = small, poorly fitted or top-dose-only effect; inactive = no such curve, though single readings can be large or run the other way. Where the call is inconclusive, the potency comes from a doubtful curve fit. Potency is read from the fitted curve at half-maximal effect."}
{"assay": "A quantitative high throughput screen for small molecules that induce DNA re-replication in SW480 colon adenocarcinoma cells; also: nearly all actives have a fitted effect of over 55% in size.", "settings": "Hoechst DNA content imaging, 48 h; series mostly up to 46.1 µM", "procedure,_shortened": "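Image-based read-out: total Hoechst fluorescence of nuclei (405 nm excitation, 500-530 nm emission), with hits raising the fraction of high-intensity nuclei. SW480 colon cells incubated 48 hr with compounds at 37 C.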"}
{"compound": "COc1ccc(C(=O)NNC(=O)C(=O)/C=C(\\O)c2ccc(C)cc2)cc1", "Potency": "inconclusive: 29.1 µM [activator, single point]"}
{"compound": "CCCn1c(SCC(=O)N2CCN(CC)CC2)nc2c1c(=O)n(C)c(=O)n2C", "Potency": "inactive"}
{"compound": "Cc1ccc(NC(=O)c2nc(C)n(-c3ccc([N+](=O)[O-])cc3)n2)cc1", "Potency": "inactive"}
{"compound": "O=C(c1cnn2c(C(F)(F)F)cc(-c3ccccc3)nc12)N1CCCCC1c1cccnc1", "note": "(centres undefined)", "Potency": "inactive"}
{"compound": "Cc1cc(S(=O)(=O)NCC(C)C)ccc1OCC(=O)NCC1CCCO1", "note": "(centres undefined)", "Potency": "inconclusive: 6.51 µM [activator, full curve, poor fit]"}
{"compound": "CNC(CC(C)C)C(=O)NC1C(=O)NC(CC(N)=O)C(=O)NC2C(=O)NC3C(=O)NC(C(=O)NC(C(=O)O)c4cc(O)cc(O)c4-c4cc3ccc4O)C(O)c3ccc(c(Cl)c3)Oc3cc2cc(c3OC2OC(CO)C(O)C(O)C2OC2CC(C)(N)C(O)C(C)O2)Oc2ccc(cc2Cl)C1O", "note": "(centres undefined)", "Potency": "inactive"}
{"compound": "COc1ccc(OC)c(Nc2nc(N)nc(CCl)n2)c1", "Potency": "active: 2.59 µM"}
{"compound": "CCc1ccccc1Nc1nc2ccccc2[nH]1", "Potency": "inconclusive: 29.1 µM [activator, single point]"}
{"compound": "O=S(=O)(NCc1cccs1)c1ccccc1Cl", "Potency": "inactive"}
{"compound": "CCc1cc(C(=O)NCC(c2ccc(OC)cc2)N2CCOCC2)sc1C", "note": "(centres undefined)", "Potency": "inconclusive: 2.59 µM [activator, full curve, poor fit]"}
{"compound": "O=C1C=C(NCCOC23CC4CC(CC(C4)C2)C3)C2(CCCCC2)O1", "Potency": "inconclusive: 6.51 µM [activator, single point]"}
{"compound": "Cc1ccc(NC(=O)COC(=O)c2cccnc2)cc1", "Potency": "inconclusive: 0.164 µM [activator, single point]"}
{"compound": "CNc1ccccc1C(C)(C)c1cc(-c2cccc([N+](=O)[O-])c2)no1", "Potency": "inconclusive: 20.6 µM [activator, single point]"}
{"compound": "CN1CCN(c2c(/C=N/O)c3ccccc3n2C)CC1", "Potency": "inconclusive: 16.4 µM [activator, partial curve]"}
{"compound": "COc1ccc(CNCCC2(Cc3ccccc3)CC(C)N(C)CC2C)cc1OC", "note": "(centres undefined)", "Potency": "inactive"}
{"compound": "O=C(NCCc1c[nH]c2ccccc12)C(=O)NCC1OCCCN1S(=O)(=O)c1cc(F)ccc1F", "note": "(centres undefined)", "Potency": "inactive"}
{"compound": "COc1ccc(NC(=O)c2ccco2)cc1NC(=O)c1cccc(OC(C)C)c1", "Potency": "inactive"}
{"compound": "COC(=O)[C@@]1(Cc2ccc(OC)cc2)[C@H]2c3cc(C(=O)N4CCCC4)n(CCSCCO)c3C[C@H]2CN1C(=O)c1ccccc1", "Potency": "inconclusive: 18.4 µM [activator, single point]"}
{"compound": "COc1ccc(S(=O)(=O)N2CCC(C(=O)N[C@H](C(=O)NCc3ccncc3)C(C)C)CC2)cc1", "Potency": "inconclusive: 0.461 µM [activator, full curve, poor fit]"}
